Values quoted from earlier work, collected in patent US10799456B2, “Multiple drug lipid nanoparticle composition and related methods for extended drug levels in blood and lymph tissue” (priority 2015, dated 2020).
Some results were stated once for a whole list of compounds, not compound by compound.

Details: 12 HIV infected patients, oral therapy; cited from earlier work

Substance: Darunavir [Darunavir (DRV)]
- lymph node intracellular drug levels lower than those in blood: ≤ 99%
